The subject of one data set is MBP-TvaF. The data set can be described thus: aptamer blot. The following applies: SDS-PAGE protein on nitrocellulose; Dot blot/aptamer blot: 20 mM Tris-HCl, 100 mM NaCl, 5 mM MgCl2, 0.1% BSA (pH not given), 50 nM aptamer in dot blot (membranes equilibrated at 4 C); recombinant protein; protein details: MBP; label: 5' Cy5.5; single-stranded DNA.
In another data set the target is MBP-RPA2 (UniProt P15927). The experiment in a line: aptamer blot. The conditions noted are these: SDS-PAGE protein on nitrocellulose; Dot blot/aptamer blot: 20 mM Tris-HCl, 100 mM NaCl, 5 mM MgCl2, 0.1% BSA (pH not given), 50 nM aptamer in dot blot (membranes equilibrated at 4 C); recombinant protein; protein details: MBP; label: 5' Cy5.5; single-stranded DNA.
Data set [1] deals with His-TrxA (His-tagged thioredoxin 1) (UniProt P0AA25). The experiment in a line: aptamer blot. The following applies: SDS-PAGE protein on nitrocellulose; Dot blot/aptamer blot: 20 mM Tris-HCl, 100 mM NaCl, 5 mM MgCl2, 0.1% BSA (pH not given), 50 nM aptamer in dot blot (membranes equilibrated at 4 C); recombinant protein; protein details: His; label: 5' Cy5.5; single-stranded DNA.

Amino acid sequences for entries named in this document (tags omitted). A change or cut given only in a name is not applied to a line headed by its entry.
UniProt P15927: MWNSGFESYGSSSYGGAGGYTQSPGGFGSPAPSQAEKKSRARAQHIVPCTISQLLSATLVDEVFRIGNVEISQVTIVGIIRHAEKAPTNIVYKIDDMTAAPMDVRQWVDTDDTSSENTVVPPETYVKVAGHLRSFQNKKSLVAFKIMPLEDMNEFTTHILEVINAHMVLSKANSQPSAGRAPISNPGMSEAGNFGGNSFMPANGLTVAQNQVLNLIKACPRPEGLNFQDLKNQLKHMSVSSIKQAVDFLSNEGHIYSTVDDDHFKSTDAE

For the next data set, the system named is His-GFP. The data set can be described thus: aptamer blot. The following applies: SDS-PAGE protein on nitrocellulose; Dot blot/aptamer blot: 20 mM Tris-HCl, 100 mM NaCl, 5 mM MgCl2, 0.1% BSA (pH not given), 50 nM aptamer in dot blot (membranes equilibrated at 4 C); recombinant protein; protein details: His; label: 5' Cy5.5; single-stranded DNA.
In data set [2] the target is His-TrxA (His-tagged thioredoxin 1) (UniProt P0AA25). The data set can be described thus: dot blot (nitrocellulose filter binding). The conditions noted are these: nanomolar affinity, value only in figure; Dot blot/aptamer blot: 20 mM Tris-HCl, 100 mM NaCl, 5 mM MgCl2, 0.1% BSA (pH not given), 50 nM aptamer in dot blot (membranes equilibrated at 4 C); recombinant protein; protein details: His; label: 5' Cy5.5; single-stranded DNA.

Data set [3] concerns the target GST (glutathione S-transferase tag) (UniProt P08515). The experiment in a line: EMSA. The conditions noted are these: native protein in solution, up to 16 uM; EMSA: 50 mM Tris-HCl pH 7.5, 100 mM NaCl, 5 mM MgCl2, room temperature, 1 h; recombinant protein; label: 5' Cy5.5; single-stranded DNA. A general note: A gel shift assay detects complexes by their altered migration in electrophoresis.

The target of data set [4] is GST in crude E. coli lysate (UniProt P08515). The experiment in a line: aptamer blot. The following applies: IPTG-induced crude lysate, on nitrocellulose; Dot blot/aptamer blot: 20 mM Tris-HCl, 100 mM NaCl, 5 mM MgCl2, 0.1% BSA (pH not given), 50 nM aptamer in dot blot (membranes equilibrated at 4 C); protein in a lysate after overexpression; label: 5' Cy5.5; single-stranded DNA.

The target in data set [5] is GST (glutathione S-transferase tag) (UniProt P08515). The data set can be described thus: aptamer blot. The following applies: SDS-PAGE protein on nitrocellulose; Dot blot/aptamer blot: 20 mM Tris-HCl, 100 mM NaCl, 5 mM MgCl2, 0.1% BSA (pH not given), 50 nM aptamer in dot blot (membranes equilibrated at 4 C); recombinant protein; label: 5' Cy5.5; single-stranded DNA.
The target of data set [6] is His-TrxA (His-tagged thioredoxin 1) (UniProt P0AA25). The experiment in a line: EMSA. The following applies: native protein in solution, complex only at highest concentration (16 uM); EMSA: 50 mM Tris-HCl pH 7.5, 100 mM NaCl, 5 mM MgCl2, room temperature, 1 h; recombinant protein; protein details: His; label: 5' Cy5.5; single-stranded DNA.
In another data set the test system is GST-TrxA. The experiment in a line: aptamer blot. The following applies: SDS-PAGE protein on nitrocellulose; Dot blot/aptamer blot: 20 mM Tris-HCl, 100 mM NaCl, 5 mM MgCl2, 0.1% BSA (pH not given), 50 nM aptamer in dot blot (membranes equilibrated at 4 C); recombinant protein; protein details: GST; label: 5' Cy5.5; single-stranded DNA.
The next data set deals with GST-GFP. The experiment in a line: aptamer blot. The following applies: SDS-PAGE protein on nitrocellulose; Dot blot/aptamer blot: 20 mM Tris-HCl, 100 mM NaCl, 5 mM MgCl2, 0.1% BSA (pH not given), 50 nM aptamer in dot blot (membranes equilibrated at 4 C); recombinant protein; protein details: GST; label: 5' Cy5.5; single-stranded DNA.
The target of data set [7] is GST (glutathione S-transferase tag) (UniProt P08515). The experiment in a line: dot blot (nitrocellulose filter binding). The conditions noted are these: nanomolar affinity, value only in figure; Dot blot/aptamer blot: 20 mM Tris-HCl, 100 mM NaCl, 5 mM MgCl2, 0.1% BSA (pH not given), 50 nM aptamer in dot blot (membranes equilibrated at 4 C); recombinant protein; label: 5' Cy5.5; single-stranded DNA.

The exact form of at least one protein or probe is not confirmed. For part of these data: A negative result means that nothing was seen under these conditions. For part of these data: The comparison behind a weaker result is the experiment's own reference, which may not be listed here. For part of these data: Where cells or extracts were used, other partners may take part.

With “ATACGACTCACTATTAGGGACCACATAAACATGCATCGCTCAATAACGGGATATTGTTGTGCTAGACTACTGACTACAA [M1]”, the binding result in the data set with MBP-TvaF and with MBP-RPA2 was “binds” throughout.

Turning to “ATACGACTCACTATTAGGGTGCGACGGGTCACTCAAATAGTCACTCATGCTTCTAAGATTGCTAGACTACTGACTACAA [H2]”, the binding result (in [1]; in the data set with His-GFP; in data set [2]) was “binds” each time.

Take “ATACGACTCACTATTAGGGACAAAGCTGACAACCCTTTCATAATCTAACTACATTTATGTGCTAGACTACTGACTAC [G1]”: the binding result in data set [3] is “no binding”; in data set [4] it was “binds”; in data set [5], “binds”; with His-GFP it was “no binding”.

Take “ATACGACTCACTATTAGGGATGTCCACCATATAGATCGATTTAAGTCCCTCGTTATTAATGCTAGACTACTGACTACAA [H1]”: the binding result in data set [6] is recorded as “binds more weakly”; in data set [1], “binds”.

With “ATACGACTCACTATTAGGGAGGAATAGGCGAACTAACAACGATTGTGTATTCCTCACAATGCTAGACTACTGACTAC [G2]”, the binding result (with GST-TrxA; in data set [5]; in the data set with GST-GFP; in data set [7]) was “binds” in each case.
